Assay results as given in article PMC12595034.

By UniProt entry, the sequences of proteins in these tests, tags left out. Where a name states a change or a piece, a line headed by the entry shows the natural chain unless it says otherwise.
UniProt F4IWJ9: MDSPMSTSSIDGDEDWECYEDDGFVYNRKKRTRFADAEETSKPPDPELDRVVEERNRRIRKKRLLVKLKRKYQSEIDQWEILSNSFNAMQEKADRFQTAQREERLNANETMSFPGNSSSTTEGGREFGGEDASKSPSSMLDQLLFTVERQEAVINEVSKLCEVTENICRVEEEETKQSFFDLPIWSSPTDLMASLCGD

Tests used:
Test in all cases: affinity purification with mass spectrometry; GSrhino-tagged bait expressed in Arabidopsis cell suspension culture; pull-down in triplicate for each bait, on-bead digest, Q Exactive; hits filtered by NSAF against a large control AP-MS dataset of non-related baits
[1] = molecular target: CSM1-CGSrhino (Arabidopsis thaliana)
[2] = molecular target: DSN1-CGSrhino (Arabidopsis thaliana) (UniProt F4IWJ9)
[3] = molecular target: NGSrhino-DSN1 (Arabidopsis thaliana) (UniProt F4IWJ9)
[4] = molecular target: NGSrhino-KNL1 (Arabidopsis thaliana)
[5] = molecular target: NGSrhino-CSM1 (Arabidopsis thaliana)

Measured: binding

B1: ESD4 (protein, UniProt Q94F30 1-489)
chain: MGAVAINRKRSDESFNFINQQSTNPLRNSPYFQASKKRRFSFAMSEDSGKPASSNPTISRISRYPDAKAPLRREIHAPSRGILRYGKAKSNDYCEKDANFFVRKYDDAKRSALEALRFVNKGKDFVDLGDEVEKEEVVSDDSSVQAIEVIDCDDDEEKKNLQPSFSSGVTDVKKGENFRVEDTSMMLDSLSLDRDVDNDASSLEAYRKLMQSAEKRNSKLEALGFEIVLNEKKLSLLRQSRPKTVEKRVEVPREPFIPLTEDEEAEVYRAFSGRNRRKVLATHENSNIDITGEVLQCLTPSAWLNDEVINVYLELLKERETREPKKYLKCHYFNTFFYKKLVSDSGYNFKAVRRWTTQRKLGYALIDCDMIFVPIHRGVHWTLAVINNRESKLLYLDSLNGVDPMILNALAKYMGDEANEKSGKKIDANSWDMEFVEDLPQQKNGYDCGMFMLKYIDFFSRGLGLCFSQEHMPYFRLRTAKEILRLRAD
binds: [1] | [2] | [3] | [4] | [5]

These are yes or no findings as the source states them, for the method shown. In cells and extracts the contact can be indirect. Here binding means that the protein was enriched with, or labelled near, the bait; the list need not be complete.
